From US9970152B2, “Method for functionalizing a solid material surface with self assembling or self aggregating cyclodextrins and products thereof” (Aalborg Universitet, priority 2010, dated 2018)

Experiment: Adsorption of CD onto PP non-woven fiber, measured by phenol assay
Conditions: 25 v/v % EtOH/water, at 6.43 mg/ml

With OC[C@H]1O[C@@H]2O[C@H]3[C@H](O)[C@@H](O)[C@@H](O[C@H]4[C@H](O)[C@@H](O)[C@@H](O[C@H]5[C@H](O)[C@@H](O)[C@@H](O[C@H]6[C@H](O)[C@@H](O)[C@@H](O[C@H]7[C@H](O)[C@@H](O)[C@@H](O[C@H]8[C@H](O)[C@@H](O)[C@@H](O[C@H]1[C@H](O)[C@H]2O)O[C@@H]8CO)O[C@@H]7CO)O[C@@H]6CO)O[C@@H]5CO)O[C@@H]4CO)O[C@@H]3CO [β CD, β-cyclodextrin] the “maximum coating in weight percent” value was 0.2 Wt. %.
